From the supplement of paper PMC10338343
± gives the standard deviation. Only a part is listed here, and it is no random draw. Many entries were measured with a wide error.

What was measured:
[1] = tested on: MILI (PIWIL2) piRISC loaded with piRNA #1 (26 nt); assay: pre-steady-state target cleavage rate (min^-1); higher = faster piRNA-guided slicing of the target; settings: guide: piRNA #1 5'p-UGAGGUAGUAGGUUGUAUAGUAUCCA; auxiliary factor: 500 nM mouse GTSF1
How it was run: (§1)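 Reactions were run for 0–8 or 0–960 min at 33 °C in HEPES–potassium acetate buffer, combining 1 nM active affinity-purified piRISC with one synthetic guide, […] transcribed, DNA-blocked target RNA library and, in some cases, 500 nM GTSF1 partner protein. Sequencing of uncleaved targets followed, with normalisation to depth and to weakly complementary targets. Three trials were pooled, k3 was capped at 0.0001 min^-1, and the pre-steady-state cleavage rate was taken from a burst-and-steady-state fit.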

[2] = tested on: MIWI (PIWIL1) piRISC loaded with piRNA #1 (30 nt); assay: as above; settings: guide: piRNA #1 5'p-UGAGGUAGUAGGUUGUAUAGUAUCCAGAGG; auxiliary factor: 500 nM mouse GTSF1
How it was run: as §1

[3] = tested on: EfPiwi piRISC loaded with piRNA #1 (26 nt); assay: pre-steady-state target cleavage rate (min^-1); guide: piRNA #1 5'p-UGAGGUAGUAGGUUGUAUAGUAUCCA; MIWI and MILI are mouse PIWI proteins and EfPiwi is from a freshwater sponge; tags in brackets are library labels; higher = faster piRNA-guided slicing of the target; settings: auxiliary factor: 500 nM Ephydatia muelleri Gtsf1
How it was run: as §1

Row | Sequence | pre-steady-state target cleavage rate [1] | pre-steady-state target cleavage rate [2] | pre-steady-state target cleavage rate [3]
1 | GGAGACCUAUGUAUACAACGUACUUCCUCA | 0.0105 ± 0.0026 | 0.00201 ± 0.004 | 0.00325 ± 0.0044
2 | GGAGACCUAUGAUAACAUCCUACUACGUCA | 0.00102 ± 0.0067 | 0.00145 ± 0.0042 | 0.000467 ± 0.0052
3 | GGAGACCUAUGAUAUGUUCAUACUACCUCA | < 0.0001 | 0.000859 ± 0.0054 | 0.00113 ± 0.0063
4 | GGAGACCUAACUAAACUACCUACUACCUCA | 0.0594 ± 0.017 | 0.00115 ± 0.011 | 0.00179 ± 0.0054
5 | GGAGACCUAUGAAUACAACCAUACUACCUCA | 0.00155 ± 0.005 | 0.000577 ± 0.0083 | 0.000211 ± 0.013
6 | GGAGACCUAUGAUUACAACCGACUACCUCA | 0.00325 ± 0.0034 | 0.000607 ± 0.0078 | 0.000692 ± 0.0097
7 | GGAGACCUAUGAUAUCAACCUACUAGCUCA | 0.0019 ± 0.0031 | 0.000135 ± 0.014 | 0.000706 ± 0.0087
8 | GGAGACCUAUGAUUAGAAGCUACUACCUCA | 0.00227 ± 0.003 | 0.00015 ± 0.014 | 0.000621 ± 0.0047
9 | GGAGACGAUACUAUACAACGCUACUACCUCA | 0.00688 ± 0.0028 | 0.000612 ± 0.0097 | 0.00969 ± 0.0037
10 | GGAGACCUAUGUAUACAGACCUACUACCUCA | 0.00056 ± 0.013 | 0.000861 ± 0.0066 | 0.000394 ± 0.009
11 | GGAGACCUAACUAUACAACCUUCUACCACA | 0.00271 ± 0.0056 | 0.194 ± 0.026 | 0.0033 ± 0.0044
12 | GGAGAGGAUACUAUACUUGGAUGAUGGAGA [g15:g25:cont:t1A] | 0.000517 ± 0.011 | 0.000582 ± 0.009 | 0.000106 ± 0.036
13 | GGAGACCUAUGAUAUGUACCAAGUACCUCA | 0.000234 ± 0.023 | 0.00037 ± 0.012 | 0.000144 ± 0.014
14 | GGAGACGAUACUAUACAACGAUGAUGGAGA [g12:g24:cont:t1A] | 0.000328 ± 0.015 | 0.00019 ± 0.022 | 0.000974 ± 0.0056
15 | GGAGACCUAACUAUACAACGAACUACCUCA | 0.0033 ± 0.0053 | 0.000119 ± 0.047 | < 0.0001
16 | GGAGACCUAUGAUAUCAUCCUACUACCACA | 0.00107 ± 0.0047 | 0.00024 ± 0.0095 | 0.000157 ± 0.026
17 | GGAGAGGAUACUAUACAACCUACUAGGAGA [g6:g25:cont:t1A] | 0.00183 ± 0.0047 | 0.00274 ± 0.0045 | 0.00363 ± 0.0023
18 | GGAGUGGAUACUAUACAACCUACUUCCUGA | 0.000232 ± 0.0094 | 0.000264 ± 0.0097 | 0.00267 ± 0.0023
19 | GGAGACCUAUGAUAUGUACCUUACUACCUCA | 0.000898 ± 0.0049 | 0.000309 ± 0.0064 | 0.000512 ± 0.0086
20 | GGAGACCUAUGAUAUCAACCUUCUACCUCA | 0.0016 ± 0.003 | 0.000338 ± 0.006 | 0.000695 ± 0.0072
21 | GGAGACGAUACUAUACAACCUACACCUCA | 0.00588 ± 0.0025 | 0.000815 ± 0.0064 | 0.00474 ± 0.0027
22 | GGAGACCUAACUAUACAAUCCUACUACCUCA | 0.000635 ± 0.015 | 0.000201 ± 0.02 | 0.00138 ± 0.0055
23 | GGAGUGGAUACUAUACAACCUACUAGCACA | 0.000822 ± 0.0055 | 0.000709 ± 0.0059 | 0.00246 ± 0.0018
24 | GGAGACCUAUGAUUACAAGCUACUACCUGA | 0.0183 ± 0.0056 | 0.00108 ± 0.0059 | 0.000623 ± 0.0066

Record cards (already shown):
GGAGACGAUACUAUACAACCUACACCUCA as listed: pre-steady-state target cleavage rate [1]: 0.00588 ± 0.0025; pre-steady-state target cleavage rate [2]: 0.000815 ± 0.0064; pre-steady-state target cleavage rate [3]: 0.00474 ± 0.0027
GGAGUGGAUACUAUACAACCUACUAGCACA as listed: pre-steady-state target cleavage rate [1]: 0.000822 ± 0.0055; pre-steady-state target cleavage rate [2]: 0.000709 ± 0.0059; pre-steady-state target cleavage rate [3]: 0.00246 ± 0.0018
GGAGACCUAUGAUUACAACCGACUACCUCA as listed: pre-steady-state target cleavage rate [1]: 0.00325 ± 0.0034; pre-steady-state target cleavage rate [2]: 0.000607 ± 0.0078; pre-steady-state target cleavage rate [3]: 0.000692 ± 0.0097
GGAGACCUAUGAUAUCAUCCUACUACCACA as listed: pre-steady-state target cleavage rate [1]: 0.00107 ± 0.0047; pre-steady-state target cleavage rate [2]: 0.00024 ± 0.0095; pre-steady-state target cleavage rate [3]: 0.000157 ± 0.026

(further entries)

Row | Sequence | pre-steady-state target cleavage rate [1] | pre-steady-state target cleavage rate [2] | pre-steady-state target cleavage rate [3]
25 | GGAGACCUAUGAUUACAACCUACUUCCACA | 0.00187 ± 0.0038 | 0.000476 ± 0.0043 | 0.000217 ± 0.014
26 | GGAGACCUAUGAUUACAACGUACUACGUCA | 0.00138 ± 0.0045 | 0.00139 ± 0.0046 | 0.000592 ± 0.0045
27 | GGAGACCUAUGAAUACAACGUACUACGUCA | 0.00152 ± 0.0042 | 0.000386 ± 0.0068 | 0.000328 ± 0.011
28 | GGAGACCUAUGAUAACAACCUUCUACCUGA | 0.000608 ± 0.0077 | 0.000237 ± 0.0076 | 0.00022 ± 0.0081
29 | GGAGACCUAUGUAUACAACCUAGUAGCUCA | 0.00126 ± 0.0043 | 0.00126 ± 0.0039 | 0.00193 ± 0.0069
30 | GGAGACCUAUGAUAUGUUGCUACUUCGUCA | 0.000273 ± 0.011 | 0.000883 ± 0.0066 | 0.000783 ± 0.0057
31 | GGAGACCUAUGAUAUGUACGCUACUACCUCA | 0.000713 ± 0.0087 | 0.000928 ± 0.0045 | 0.00134 ± 0.0053
32 | GGAGACCUAUGAUAACUACCUACUACCUCA | 0.00161 ± 0.0031 | 0.000209 ± 0.01 | 0.000993 ± 0.0052
33 | GGAGACCUAUGUAUACAAUCCUACUACCUCA | 0.000894 ± 0.0089 | 0.000507 ± 0.012 | 0.00119 ± 0.0063
34 | GGAGACCUAUGAUUACAAGGUACUACCUCA | 0.0041 ± 0.0031 | 0.00114 ± 0.0084 | 0.000686 ± 0.0088
35 | GGAGACCUAUGAUAACAACCACUACCUCA | 0.000382 ± 0.013 | 0.000219 ± 0.0074 | 0.000232 ± 0.013
36 | GGAGACCUAUGAAUAACAACCUACUACCUCA | 0.00368 ± 0.0026 | 0.00125 ± 0.0055 | 0.000909 ± 0.0071
37 | GGAGACCUAACUAUACAACCUAGUACCUGA | 0.000655 ± 0.019 | 0.0015 ± 0.0071 | 0.00261 ± 0.0027
38 | GGAGACCUAUGAUUACAACCUAGUACCACA | 0.00109 ± 0.0057 | 0.000262 ± 0.0076 | 0.000783 ± 0.006
39 | GGAGACCUAACUAUACAACCUACUAGGUCA | 0.000242 ± 0.051 | 0.00115 ± 0.01 | 0.00196 ± 0.0036
40 | GGAGACCUAUGAUAUGUUGCUACUACGUCA | 0.000735 ± 0.0084 | 0.00121 ± 0.0051 | 0.00102 ± 0.0042
41 | GGAGACCUAUGAUAACAAACCUACUACCUCA | 0.00137 ± 0.005 | 0.000137 ± 0.024 | 0.000856 ± 0.0062
42 | GGAGACCUAUGAUUUCAACCUACUACGUCA | 0.000311 ± 0.0072 | 0.000562 ± 0.0032 | 0.000225 ± 0.012
43 | GGAGACCUAUGAAAACAACCUACUACGUCA | 0.0014 ± 0.0038 | 0.00161 ± 0.0035 | 0.000265 ± 0.0076
44 | GGAGACCUAACUAUACACCUACUACCUCA | 0.00421 ± 0.0053 | 0.000811 ± 0.013 | 0.00586 ± 0.0042
45 | GGAGACCUAUGAAUACAACCUACUAUCUCA | 0.00527 ± 0.0017 | 0.000311 ± 0.0078 | 0.00136 ± 0.0045
46 | GGAGACCUAUGAUUACAACCUUGUACCUCA | 0.00139 ± 0.007 | 0.000336 ± 0.011 | 0.000314 ± 0.0074
47 | GGAGACCUAUGAUAUGUUGCUACAACCUCA | 0.000599 ± 0.011 | 0.000887 ± 0.0076 | 0.000441 ± 0.0052
